Source: the supplement of paper PMC10849652
The other results are listed elsewhere or left out.

By UniProt entry, the sequences of proteins in these tests, tags left out. Where a name states a change or a piece, a line headed by the entry shows the natural chain unless it says otherwise.
UniProt Q9H5J4: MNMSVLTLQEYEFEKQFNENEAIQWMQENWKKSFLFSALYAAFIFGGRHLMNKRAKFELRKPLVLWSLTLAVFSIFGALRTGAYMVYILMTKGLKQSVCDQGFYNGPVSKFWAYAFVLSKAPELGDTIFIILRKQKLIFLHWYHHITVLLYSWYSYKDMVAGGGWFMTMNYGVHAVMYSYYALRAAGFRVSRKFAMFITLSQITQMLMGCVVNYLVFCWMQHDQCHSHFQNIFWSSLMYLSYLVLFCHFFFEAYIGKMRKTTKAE
UniProt O43402: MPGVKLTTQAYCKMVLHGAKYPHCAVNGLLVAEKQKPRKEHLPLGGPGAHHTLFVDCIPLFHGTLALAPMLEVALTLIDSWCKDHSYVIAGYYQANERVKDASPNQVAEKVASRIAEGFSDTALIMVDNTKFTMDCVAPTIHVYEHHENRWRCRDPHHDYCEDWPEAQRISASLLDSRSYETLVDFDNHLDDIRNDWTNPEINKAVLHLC
UniProt Q14240, whole entry, looked up: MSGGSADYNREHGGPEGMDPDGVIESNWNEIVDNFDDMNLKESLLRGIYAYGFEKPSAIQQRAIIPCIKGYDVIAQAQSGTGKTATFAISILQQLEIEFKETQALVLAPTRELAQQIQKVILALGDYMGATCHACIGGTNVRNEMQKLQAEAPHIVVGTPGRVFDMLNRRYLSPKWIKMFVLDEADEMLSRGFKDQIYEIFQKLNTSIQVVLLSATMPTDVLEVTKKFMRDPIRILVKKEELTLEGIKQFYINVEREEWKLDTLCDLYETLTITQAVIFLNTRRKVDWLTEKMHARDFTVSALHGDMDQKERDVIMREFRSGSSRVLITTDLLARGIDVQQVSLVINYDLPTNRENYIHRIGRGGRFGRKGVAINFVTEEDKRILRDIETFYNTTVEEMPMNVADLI
UniProt Q92979: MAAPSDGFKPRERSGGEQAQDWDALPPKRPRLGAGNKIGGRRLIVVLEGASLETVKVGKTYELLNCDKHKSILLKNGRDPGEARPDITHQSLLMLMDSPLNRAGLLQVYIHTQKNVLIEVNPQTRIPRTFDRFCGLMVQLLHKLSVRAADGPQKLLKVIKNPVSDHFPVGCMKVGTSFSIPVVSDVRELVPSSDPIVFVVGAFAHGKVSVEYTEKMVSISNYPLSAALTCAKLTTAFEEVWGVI
UniProt P41091, whole entry, looked up: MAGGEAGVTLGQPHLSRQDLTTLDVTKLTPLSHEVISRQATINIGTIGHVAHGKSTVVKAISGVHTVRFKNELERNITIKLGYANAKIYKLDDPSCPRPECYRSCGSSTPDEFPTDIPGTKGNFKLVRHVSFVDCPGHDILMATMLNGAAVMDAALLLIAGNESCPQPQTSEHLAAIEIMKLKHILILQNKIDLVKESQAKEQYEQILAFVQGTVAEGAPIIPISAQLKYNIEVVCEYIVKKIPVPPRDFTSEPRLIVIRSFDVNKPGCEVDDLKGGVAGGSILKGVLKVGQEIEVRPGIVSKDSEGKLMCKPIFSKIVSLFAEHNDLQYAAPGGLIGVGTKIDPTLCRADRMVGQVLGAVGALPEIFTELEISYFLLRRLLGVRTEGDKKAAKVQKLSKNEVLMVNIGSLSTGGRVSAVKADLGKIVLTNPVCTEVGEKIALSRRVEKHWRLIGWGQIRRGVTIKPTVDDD
UniProt P49770: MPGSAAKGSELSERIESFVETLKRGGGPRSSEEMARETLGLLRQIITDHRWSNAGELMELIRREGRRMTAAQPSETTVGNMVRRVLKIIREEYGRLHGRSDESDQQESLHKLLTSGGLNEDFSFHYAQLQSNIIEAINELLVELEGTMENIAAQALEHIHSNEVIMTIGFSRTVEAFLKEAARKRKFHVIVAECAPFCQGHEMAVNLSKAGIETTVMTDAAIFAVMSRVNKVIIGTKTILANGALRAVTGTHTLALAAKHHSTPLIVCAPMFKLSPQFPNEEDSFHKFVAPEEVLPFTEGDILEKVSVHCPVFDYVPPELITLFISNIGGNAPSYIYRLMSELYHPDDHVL
UniProt Q96JJ3: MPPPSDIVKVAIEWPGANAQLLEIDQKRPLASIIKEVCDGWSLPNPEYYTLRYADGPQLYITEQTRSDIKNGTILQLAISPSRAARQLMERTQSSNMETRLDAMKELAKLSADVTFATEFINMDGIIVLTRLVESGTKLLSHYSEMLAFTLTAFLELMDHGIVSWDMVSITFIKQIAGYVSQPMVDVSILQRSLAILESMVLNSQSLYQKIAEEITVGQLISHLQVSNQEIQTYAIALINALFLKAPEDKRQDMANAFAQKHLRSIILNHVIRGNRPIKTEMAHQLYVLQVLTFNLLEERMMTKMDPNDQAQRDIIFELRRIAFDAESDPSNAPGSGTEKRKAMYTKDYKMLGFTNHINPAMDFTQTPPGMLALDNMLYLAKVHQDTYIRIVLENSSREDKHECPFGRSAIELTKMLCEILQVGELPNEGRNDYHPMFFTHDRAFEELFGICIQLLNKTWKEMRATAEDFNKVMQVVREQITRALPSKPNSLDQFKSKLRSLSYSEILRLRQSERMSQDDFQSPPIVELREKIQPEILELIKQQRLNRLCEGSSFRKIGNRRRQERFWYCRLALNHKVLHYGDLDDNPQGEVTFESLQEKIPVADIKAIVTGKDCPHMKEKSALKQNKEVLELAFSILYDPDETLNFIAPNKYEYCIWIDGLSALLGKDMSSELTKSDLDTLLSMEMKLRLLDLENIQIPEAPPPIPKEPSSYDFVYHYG
UniProt Q9P2K8: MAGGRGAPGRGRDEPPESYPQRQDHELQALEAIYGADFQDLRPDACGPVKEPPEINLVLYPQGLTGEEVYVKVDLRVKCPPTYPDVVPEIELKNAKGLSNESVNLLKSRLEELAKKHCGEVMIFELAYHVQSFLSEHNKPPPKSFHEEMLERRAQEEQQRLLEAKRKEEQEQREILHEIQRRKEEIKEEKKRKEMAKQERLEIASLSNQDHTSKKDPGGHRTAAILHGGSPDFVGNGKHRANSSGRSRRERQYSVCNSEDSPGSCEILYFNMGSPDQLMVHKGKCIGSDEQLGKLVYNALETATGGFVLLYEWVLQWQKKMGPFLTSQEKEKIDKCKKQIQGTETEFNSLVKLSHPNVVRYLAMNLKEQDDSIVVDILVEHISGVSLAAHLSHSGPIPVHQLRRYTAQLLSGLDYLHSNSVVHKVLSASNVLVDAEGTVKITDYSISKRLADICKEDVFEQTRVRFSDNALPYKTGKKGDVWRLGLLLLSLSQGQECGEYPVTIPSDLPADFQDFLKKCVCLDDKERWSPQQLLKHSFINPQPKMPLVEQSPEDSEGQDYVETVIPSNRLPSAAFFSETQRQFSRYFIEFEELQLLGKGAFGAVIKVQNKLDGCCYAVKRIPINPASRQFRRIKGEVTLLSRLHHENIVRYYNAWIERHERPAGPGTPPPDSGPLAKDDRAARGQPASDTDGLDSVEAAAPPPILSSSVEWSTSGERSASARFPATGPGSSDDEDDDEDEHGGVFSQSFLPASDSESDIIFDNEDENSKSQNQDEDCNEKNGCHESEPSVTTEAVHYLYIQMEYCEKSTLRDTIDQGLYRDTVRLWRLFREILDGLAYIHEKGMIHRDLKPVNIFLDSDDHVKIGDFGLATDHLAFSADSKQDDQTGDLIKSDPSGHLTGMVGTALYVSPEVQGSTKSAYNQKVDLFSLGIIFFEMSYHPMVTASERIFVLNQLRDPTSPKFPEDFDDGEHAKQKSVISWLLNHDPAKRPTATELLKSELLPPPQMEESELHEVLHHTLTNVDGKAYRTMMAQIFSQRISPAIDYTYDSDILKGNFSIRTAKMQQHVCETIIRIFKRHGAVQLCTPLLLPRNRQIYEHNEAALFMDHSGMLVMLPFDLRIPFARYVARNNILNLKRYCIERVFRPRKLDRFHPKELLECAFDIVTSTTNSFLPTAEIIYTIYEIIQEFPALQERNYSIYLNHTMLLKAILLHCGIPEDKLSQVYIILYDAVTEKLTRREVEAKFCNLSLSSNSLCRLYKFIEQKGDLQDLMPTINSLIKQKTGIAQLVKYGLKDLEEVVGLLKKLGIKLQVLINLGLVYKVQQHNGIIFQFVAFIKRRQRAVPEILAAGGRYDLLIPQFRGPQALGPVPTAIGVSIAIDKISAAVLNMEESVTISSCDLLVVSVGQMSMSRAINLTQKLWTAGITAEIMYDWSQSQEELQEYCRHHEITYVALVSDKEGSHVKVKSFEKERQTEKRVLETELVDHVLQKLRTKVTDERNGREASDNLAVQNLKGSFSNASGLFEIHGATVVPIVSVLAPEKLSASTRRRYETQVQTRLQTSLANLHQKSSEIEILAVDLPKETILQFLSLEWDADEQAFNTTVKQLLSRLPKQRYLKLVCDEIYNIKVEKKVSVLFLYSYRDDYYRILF
UniProt Q6ZTU2, whole entry, looked up: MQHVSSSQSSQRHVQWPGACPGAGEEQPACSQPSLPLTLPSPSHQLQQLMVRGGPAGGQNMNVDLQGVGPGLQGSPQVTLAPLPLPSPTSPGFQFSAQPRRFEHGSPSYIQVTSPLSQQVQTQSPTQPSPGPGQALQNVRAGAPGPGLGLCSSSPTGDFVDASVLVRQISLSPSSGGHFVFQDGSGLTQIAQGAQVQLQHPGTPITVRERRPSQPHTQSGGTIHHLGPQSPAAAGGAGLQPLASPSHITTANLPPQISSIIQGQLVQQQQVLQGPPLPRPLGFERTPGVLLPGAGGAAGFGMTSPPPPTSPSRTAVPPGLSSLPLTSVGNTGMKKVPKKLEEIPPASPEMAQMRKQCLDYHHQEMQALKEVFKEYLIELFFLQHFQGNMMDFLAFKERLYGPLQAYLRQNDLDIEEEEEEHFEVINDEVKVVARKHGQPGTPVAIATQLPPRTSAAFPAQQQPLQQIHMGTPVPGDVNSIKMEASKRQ
UniProt Q7L775: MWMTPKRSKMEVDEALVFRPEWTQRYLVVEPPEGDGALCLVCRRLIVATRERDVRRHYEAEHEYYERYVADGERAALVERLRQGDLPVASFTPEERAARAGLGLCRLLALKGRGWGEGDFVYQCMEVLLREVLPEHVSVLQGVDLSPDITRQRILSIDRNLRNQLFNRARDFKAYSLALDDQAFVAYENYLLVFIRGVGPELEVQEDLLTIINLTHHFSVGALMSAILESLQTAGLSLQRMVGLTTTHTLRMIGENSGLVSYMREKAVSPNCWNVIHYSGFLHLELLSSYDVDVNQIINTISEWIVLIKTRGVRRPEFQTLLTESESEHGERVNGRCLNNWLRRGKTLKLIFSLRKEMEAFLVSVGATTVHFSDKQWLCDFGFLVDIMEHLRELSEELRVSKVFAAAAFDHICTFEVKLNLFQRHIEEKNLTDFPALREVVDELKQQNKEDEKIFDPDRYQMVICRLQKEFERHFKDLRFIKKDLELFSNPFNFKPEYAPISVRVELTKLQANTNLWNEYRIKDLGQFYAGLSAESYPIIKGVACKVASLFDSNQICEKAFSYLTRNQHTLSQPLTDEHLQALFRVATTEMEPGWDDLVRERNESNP
UniProt O60573: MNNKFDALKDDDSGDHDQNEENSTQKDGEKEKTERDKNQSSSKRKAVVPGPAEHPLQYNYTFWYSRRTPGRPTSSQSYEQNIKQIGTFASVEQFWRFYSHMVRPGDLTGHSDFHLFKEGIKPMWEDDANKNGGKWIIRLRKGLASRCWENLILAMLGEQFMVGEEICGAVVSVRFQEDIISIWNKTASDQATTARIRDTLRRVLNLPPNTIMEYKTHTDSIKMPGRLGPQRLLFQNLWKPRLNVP
UniProt P63241: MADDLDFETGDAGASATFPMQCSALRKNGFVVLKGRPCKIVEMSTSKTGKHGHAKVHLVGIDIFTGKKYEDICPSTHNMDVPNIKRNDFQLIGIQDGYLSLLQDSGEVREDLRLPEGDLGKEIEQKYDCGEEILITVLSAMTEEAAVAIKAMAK
UniProt Q13542: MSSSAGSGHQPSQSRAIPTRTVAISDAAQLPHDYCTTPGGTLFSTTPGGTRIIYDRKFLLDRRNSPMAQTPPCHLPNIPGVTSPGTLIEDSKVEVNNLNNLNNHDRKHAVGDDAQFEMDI
UniProt Q9UI10, whole entry, looked up: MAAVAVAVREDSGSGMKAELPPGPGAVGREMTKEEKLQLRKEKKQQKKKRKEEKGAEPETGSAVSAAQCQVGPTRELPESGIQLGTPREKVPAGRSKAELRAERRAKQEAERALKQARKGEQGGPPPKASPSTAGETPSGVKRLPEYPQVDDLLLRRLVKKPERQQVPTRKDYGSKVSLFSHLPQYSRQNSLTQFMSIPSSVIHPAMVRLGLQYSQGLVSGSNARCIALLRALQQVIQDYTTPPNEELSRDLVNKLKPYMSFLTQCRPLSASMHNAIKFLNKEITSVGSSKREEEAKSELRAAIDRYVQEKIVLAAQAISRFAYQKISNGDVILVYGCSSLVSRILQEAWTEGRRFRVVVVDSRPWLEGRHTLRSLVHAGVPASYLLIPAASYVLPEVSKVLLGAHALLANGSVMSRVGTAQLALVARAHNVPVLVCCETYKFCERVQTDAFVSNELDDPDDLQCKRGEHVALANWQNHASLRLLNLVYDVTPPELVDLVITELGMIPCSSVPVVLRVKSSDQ
UniProt Q15369, whole entry, looked up: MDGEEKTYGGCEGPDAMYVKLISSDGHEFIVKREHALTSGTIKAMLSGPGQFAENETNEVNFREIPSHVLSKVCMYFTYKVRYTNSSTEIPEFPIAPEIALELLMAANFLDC

Each target was assayed with NCC(=O)Nc1ccc(-n2nc(C(F)(F)F)cc2-c2ccc3c(ccc4ccccc43)c2)cc1 (assay: log2 fold change, soluble protein after heating vs DMSO (PISA); higher = thermal stabilisation; K562 lysate, 10 uM; active = over 0.2 and 3.5 SD of the protein, either way, in both replicates (recomputed)).
How it was run: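 Values give the log-two fold change in thermal stability against solvent controls, from duplicates. Crude K562 extract at 1 mg/mL protein, made by dounce homogenisation in PBS pH 7.4 with 1 mM MgCl2, was treated with 10 μM compound for 30 min. After 3 min heating across 48°C-58°C, aliquots were pooled, adjusted to 0.5% NP-40 at 4°C and centrifuged at 21,000xg for 90 min. The supernatant was measured by TMTpro 16plex LC-MS/MS with channel sums equalised.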

Target	log2 fold change
ELOVL6 (UniProt Q9H5J4)	inactive: -0.043
EMC8 (UniProt O43402)	inactive: 0.027
ERCC3 (UniProt P19447)	inactive: 0.027
EIF3D (UniProt O15371)	inactive: 0.009
ERAL1 (UniProt O75616)	inactive: -0.013
EIF4A2 isoform 2 (UniProt Q14240)	inactive: -0.024
ERC1 (UniProt X6RLX0)	inactive: 0.02
EMG1 (UniProt Q92979)	inactive: 0
ENPP3 (UniProt O14638)	inactive: -0.024
EIF2S3 (UniProt P41091)	inactive: 0.012
EIF2B2 (UniProt P49770)	inactive: -0.036
ELMO2 (UniProt Q96JJ3)	inactive: 0.077
EPB41 (UniProt P11171)	inactive: -0.046
EIF2AK4 (UniProt Q9P2K8)	inactive: 0.035
EP400P1 isoform 6 (UniProt Q6ZTU2)	inactive: 0.168
ELMOD2 (UniProt Q8IZ81)	inactive: 0.066
ELAVL4 (UniProt P26378)	inactive: 0.016
ENGASE (UniProt Q8NFI3)	inactive: -0.01

A few values from above.
In log2 fold change, EIF4A2 isoform 2 (UniProt Q14240) is entered as inactive: -0.024
In log2 fold change, ENGASE (UniProt Q8NFI3) is entered as inactive: -0.01

Going on with the list:

Target	log2 fold change
EPM2AIP1 (UniProt Q7L775)	inactive: -0.013
ELF1 (UniProt P32519)	inactive: 0.058
EIF4E2 (UniProt O60573)	inactive: 0.037
EIF5A isoform 2 (UniProt P63241)	inactive: -0.021
EIF4EBP2 (UniProt Q13542)	inactive: -0.16
ELMO1 (UniProt Q92556)	inactive: -0.023
ENO2 (UniProt P09104)	inactive: -0.021
ELAVL1 isoform 2 (UniProt Q15717)	inactive: 0.042
EMD (UniProt P50402)	inactive: 0.075
ERCC4 (UniProt Q92889)	inactive: 0.026
EIF2B4 isoform 2 (UniProt Q9UI10)	inactive: 0.023
EOGT (UniProt Q5NDL2)	inactive: 0.112
ELP2 isoform 6 (UniProt Q6IA86)	inactive: -0.022
EIF4H (UniProt Q15056)	inactive: -0.041
EPB41L3 (UniProt Q9Y2J2)	inactive: -0.076
ELOC (UniProt Q15369)	inactive: -0.061
EIF2D (UniProt P41214)	inactive: 0.03
